Source: patent EP0863214A2, “Reporter gene construct for measuring G protein coupled receptor activation” (SMITHKLINE BEECHAM CORPORATION, priority 1997, dated 1998)
At least one compound was matched to its structure with a doubt left.

Tested on: HEK 293 cells transfected with MREII VIPII
Assay type: cell-based, Human
Experimental: Day 1: HEK293 cells at a density of 4.5x10^6/T-75 flask in Earl's Minimum Essential Medium (EMEM) supplemented with 10% fetal bovine serum and 2 mM glutamine were incubated overnight in a humidified tissue culture incubator at 37°C, 5% CO2.
Day 2: MREII VIPII DNA (7.8 µg) was mixed with 780 µl of serum free EMEM to produce Solution A. Lipofectamine (23.1 µl; Gibco-BRL) was mixed with 780 µl of serum EMEM to produce Solution B. Solutions A and B were then mixed gently and incubate at room temperature for 15-45 minutes. Cells were then rinsed with 15 ml of serum free EMEM and 6.25 ml of serum free EMEM was added. Combined solutions (A + B) were overlayed and the flask was placed in a tissue culture incubator for 5 hours. Media was replaced with 15 ml of EMEM/10% serum/ 2 mM glutamine and stored in the tissue culture incubator. […]
Cell lysis solution (50 µl; Promega) supplemented with AEBSF (0.24 mg/ml), pepstatin, leupeptin, and aprotinin (5µg/ml each), and DNAse I (50 µg/ml) was added and extracts were frozen. Ten microliters of thawed extract were added to assay plates along with 50 µl of reconstituted luciferase assay reagent (Promega) using a luminometer autoinjector (Dynex MLX) and samples were read. Luciferase activity is expressed as a fold enhancement over the basal luciferase activity expressed in cells that have not been challenged with agonist, IBMX, TPA, or forskolin.

With `C=C[C@@]1(C)CC(=O)[C@]2(O)[C@@]3(C)[C@@H](O)CCC(C)(C)[C@@H]3[C@H](O)[C@H](OC(C)=O)[C@@]2(C)O1` [forskolin] the “activation of MREII VIPII (protein kinase specificity)” value (forskolin (15 µM) or TPA (100 nM), 6 or 24 hour stimulation, forskolin in the presence or absence of IBMX) was “Significant activation” and the Luciferase stimulation (wild-type HEK 293 cells or HEK 293 cells expressing the porcine CGRP receptor, endogenous receptors or direct activation of adenylyl cyclase, in the presence of IBMX) was “Luciferase stimulation was observed”.
